Data on 42 compounds can be found in the supplement of paper PMC4749390.

Structures are written as SMILES. Where a name gives a salt, the structure may show the parent alone. This is one part of the list. Repeats in this data set agree poorly, so a single value says little.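 JEG3 cells stably express tetracycline-inducible wild-type human LRH-1, a highly sumoylated nuclear receptor. SUMO-sensitive transcripts APOC3 and MUC1, increased by SUMO-deficient LRH-1 or UBC9 knockdown, were quantified by RT-qPCR relative to TBP and DMSO controls. Primary hits had robust Z-scores above +2 or below -2, before toxicity and TBP filtering.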

In the test the test system is JEG3 expressing hLRH-1. Kind of test: MUC1 transcript change (ddCt vs TBP and DMSO), Z-score over library; higher = higher MUC1 expression. The conditions noted are these: 10 µM; time (hr): 24.
For `CCC(=O)OCC(=O)C1(OC(=O)CC)C(C)CC2C3CCC4=CC(=O)C=CC4(C)C3(Cl)C(O)CC21C` (configuration not stated) [beclomethasone dipropionate], the “MUC1 transcript change (Z-score)” value is -0.18.

For the compound `CC(=O)OCC(=O)[C@@]12OC3(CCCC3)O[C@@H]1C[C@H]1[C@@H]3CCC4=CC(=O)C=C[C@]4(C)[C@@]3(F)[C@@H](O)C[C@@]12C` [amcinonide], the “MUC1 transcript change (Z-score)” value was -1.27.

Regarding `CC1COc2c(N3CCN(C)CC3)c(F)cc3c(=O)c(C(=O)O)cn1c23` (configuration not stated) [ofloxacin], the “MUC1 transcript change (Z-score)” value turned out to be 0.0526.

Consider `NC(=O)c1ccc([N+](=O)[O-])cc1Cl` [aklomide], for which the “MUC1 transcript change (Z-score)” value is -0.477.

Take `CN1CCN(c2cc3c(cc2F)c(=O)c(C(=O)O)cn3-c2ccc(F)cc2)CC1` [difloxacin hydrochloride]: the “MUC1 transcript change (Z-score)” value is -0.224.

Regarding `C#C[C@]1(OC(C)=O)CC[C@H]2[C@@H]3CCC4=CC(=O)CC[C@@H]4[C@H]3CC[C@@]21C` [norethindrone acetate], the “MUC1 transcript change (Z-score)” value stood at 0.134.

As to `CCCCOC(=O)c1ccc(O)cc1` [butyl paraben], the “MUC1 transcript change (Z-score)” value came out at 0.267.

As for `N=C(N)NS(=O)(=O)c1ccc(N)cc1` [sulfaguanidine], the “MUC1 transcript change (Z-score)” value is -1.21.

Consider `Sc1[nH]cnc2ncnc1-2` [mercaptopurine], for which the “MUC1 transcript change (Z-score)” value is 1.51.

Regarding `O=C(c1ccccc1)c1ccc2n1CCC2C(=O)O` (configuration not stated) [ketorolac tromethamine], the “MUC1 transcript change (Z-score)” value amounted to 0.871.

Regarding `Oc1[nH]cnc2nncc1-2` [Allopurinol], the “MUC1 transcript change (Z-score)” value was 0.118.

In the case of `CC[C@H](C)C(=O)O[C@H]1C[C@H](O)C=C2C=C[C@H](C)[C@H](CC[C@@H](O)C[C@@H](O)CC(=O)O)[C@H]21` [pravastatin sodium], the “MUC1 transcript change (Z-score)” value is -0.234.

As for `C=C(NC(=O)C(=C)NC(=O)c1csc(C2=NC3c4csc(n4)C4NC(=O)c5csc(n5)C(C(C)(O)C(C)O)NC(=O)C5CSC(=N5)/C(=C\C)NC(=O)C(C(C)O)NC(=O)c5csc(n5)C3(CC2)NC(=O)C(C)NC(=O)C(=C)NC(=O)C(C)NC(=O)C(C(C)CC)NC2C=Cc3c(C(C)O)cc(nc3C2O)C(=O)OC4C)n1)C(N)=O` (configuration not stated) [thiostrepton], the “MUC1 transcript change (Z-score)” value worked out at 1.08.

Consider `COc1ccc2nc3cc(Cl)ccc3c(Nc3cc(CN4CCCC4)c(O)c(CN4CCCC4)c3)c2n1` [pyronaridine tetraphosphate], for which the “MUC1 transcript change (Z-score)” value was -0.323.

Regarding `OCC(S)CS` (configuration not stated) [dimercaptopropanol], the “MUC1 transcript change (Z-score)” value was -0.499.

`[Li+]` [lithium citrate]: the “MUC1 transcript change (Z-score)” value is 0.996.

`COc1ccc(C2C(=O)c3ccccc3C2=O)cc1` [anisindione]: the “MUC1 transcript change (Z-score)” value is 0.541.

For `CCC(=O)OCC(=O)[C@@]1(OC(=O)CC)[C@H](C)CC2C3C([C@@H](O)C[C@@]21C)[C@@]1(C)C=CC(=O)C=C1C[C@H]3Cl` (some centres not stated) [alclometazone dipropionate], the “MUC1 transcript change (Z-score)” value was -1.18.

As to `C=C[C@@]1(C)CC(=O)[C@@]2(O)[C@](C)(O1)[C@@H](OC(C)=O)[C@@H](O)C1C(C)(C)CC[C@H](O)[C@@]12C` (some centres not stated) [colforsin], the “MUC1 transcript change (Z-score)” value is -5.72.

Regarding `NC(=O)C1(N2CCCCC2)CCN(CCCC(=O)c2ccc(F)cc2)CC1` [pipamperone], the “MUC1 transcript change (Z-score)” value was 0.638.

Turning to `COc1c2occc2c(OC)c2c(=O)cc(C)oc12` [khellin], the “MUC1 transcript change (Z-score)” value stood at 0.614.

`NC(=O)CC[C@H](N)C(=O)O` [L-Glutamine]: the “MUC1 transcript change (Z-score)” value stood at 0.984.

Consider `CCCC(C(=O)OCCN(CC)CC)(c1ccccc1)c1ccccc1` [SKF-525A hydrochloride], for which the “MUC1 transcript change (Z-score)” value turned out to be 0.705.

As for `NC(=O)C1CCCN1C(=O)C(Cc1c[nH]cn1)NC(=O)C1CCC(=O)N1` (configuration not stated) [protirelin], the “MUC1 transcript change (Z-score)” value stood at 0.535.

Take `CN1CCC[C@H]1c1cccnc1` [nicotine ditartrate]: the “MUC1 transcript change (Z-score)” value turned out to be 0.463.

`Cc1cc(C(C)(C)C)cc(C)c1CC1=NCCN1` [xylometazoline hydrochloride]: the “MUC1 transcript change (Z-score)” value was 0.999.

As to `CC1(C)S[C@@H]2[C@H](NC(=O)COc3ccccc3)C(=O)N2[C@H]1C(=O)O` [penicillin v potassium], the “MUC1 transcript change (Z-score)” value stood at 0.695.

For the compound `CCCC(=O)O[C@]1(C(=O)CO)CC[C@H]2[C@@H]3CCC4=CC(=O)CC[C@]4(C)[C@H]3[C@@H](O)C[C@@]21C` [hydrocortisone butyrate], the “MUC1 transcript change (Z-score)” value was -0.451.

With `O=c1[nH]c(=O)n([C@H]2C[C@H](O)[C@@H](CO)O2)cc1C(F)(F)F` [trifluridine], the “MUC1 transcript change (Z-score)” value was determined as 2.72.

With `CCCOc1ccccc1-c1nc(O)c2[nH]nnc2n1` [Zaprinast], the “MUC1 transcript change (Z-score)” value was -0.241.

Turning to `CCC1OC(=O)[C@H](C)C(=O)[C@H](C)[C@@H](OC2O[C@H](C)C[C@H](N(C)C)[C@H]2O)[C@](C)(OC)C[C@@H](C)C(=O)[C@@H](C)[C@@H]2N(CCCCn3cnc(-c4cccnc4)c3)C(=O)O[C@]12C` (some centres not stated) [telithromycin], the “MUC1 transcript change (Z-score)” value was -0.000653.

Regarding `N=C(N)NC(=O)Cc1c(Cl)cccc1Cl` [guanfacine hydrochloride], the “MUC1 transcript change (Z-score)” value was 0.624.

With `CC1=C(C/C=C(\C)CCC[C@H](C)CCC[C@H](C)CCCC(C)C)C(=O)c2ccccc2C1=O` [phytonadione], the “MUC1 transcript change (Z-score)” value was determined as 0.724.

For `CCCCCCCCNC(C)C(O)c1ccc(SC(C)C)cc1` (configuration not stated) [suloctidil], the “MUC1 transcript change (Z-score)” value was -0.249.

On to `C[C@H]1O[C@@H](O[C@H]2[C@@H](O)C[C@H](O[C@H]3[C@@H](O)C[C@H](O[C@H]4CC[C@@]5(C)[C@H](CC[C@@H]6[C@@H]5CC[C@]5(C)[C@@H](C7=CC(=O)OC7)CC[C@]65O)C4)O[C@@H]3C)O[C@@H]2C)C[C@H](O)[C@@H]1O` [digitoxin], for which the “MUC1 transcript change (Z-score)” value was 0.0347.

`CN(Cc1cnc2nc(N)nc(N)c2n1)c1ccc(C(=O)NC(CCC(=O)O)C(=O)O)cc1` (racemic) [methotrexate(+/-)]: the “MUC1 transcript change (Z-score)” value is 0.516.

As for `NCc1ccccc1CC(=O)NC1C(=O)N2C(C(=O)O)=C(CSc3nnnn3CC(=O)O)CSC12` (configuration not stated) [ceforanide], the “MUC1 transcript change (Z-score)” value stood at 0.11.

As for `O=S(=O)(O)CCCS(=O)(=O)O` [eprodisate disodium], the “MUC1 transcript change (Z-score)” value turned out to be 0.0755.

For the compound `COc1cc(NS(=O)(=O)c2ccc(N)cc2)nc(OC)n1` [sulfadimethoxine], the “MUC1 transcript change (Z-score)” value stood at 0.501.

On to `CC(C)c1nc(N(C)S(C)(=O)=O)nc(-c2ccc(F)cc2)c1/C=C/[C@@H](O)C[C@@H](O)CC(=O)O` [rosuvastatin], for which the “MUC1 transcript change (Z-score)” value was -0.0371.

Turning to `CN1C2CCC1CC(OC(=O)c1c[nH]c3ccccc13)C2` (configuration not stated) [3-Tropanyl-indole-3-carboxylate hydrochloride], the “MUC1 transcript change (Z-score)” value was 0.857.

On to `CC(=O)OCC(=O)[C@@]1(O)[C@H](OC(C)=O)C[C@H]2[C@@H]3CCC4=CC(=O)C=C[C@]4(C)[C@@]3(F)[C@@H](O)C[C@@]21C` [triamcinolone diacetate], for which the “MUC1 transcript change (Z-score)” value was -0.257.
